Results deposited as PubChem BioAssay AID1259254 (NCATS, 2017).
This is an unselected part of about 59,000 reagents tested. About 1,550 of all reagents (2.6%) were called active. 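G2 share is only a proxy for re-replication; each gene was hit by three separate siRNAs, and active genes were retested.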 A number with no mark means an inactive call. Reagents against one gene are numbered here. Further read-outs or replicates are left out here. No sequences are given here. Not stated in the record: the amount of reagent.

Test: 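Genome-wide screen for genes that prevent DNA re-replication in cancer cells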 (primary screen)
Cell system: human HCT116 colorectal cancer cells
Reagent: single siRNA against human genes
Time to read-out: 3 days
Read-out: 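Imaged Hoechst DNA stain sorts each cell into a cycle phase by DNA amount; per plate, G2 fraction set to 0% for non-targeting and 100% for GMNN siRNA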
Reading the numbers: G2 robust z-score: higher = more G2 cells, more excess DNA replication
Active means: 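Active siRNAs have a G2 robust z of 5 or more median absolute deviations over the median, which in these data means about 38% or higher of GMNN control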

G2 robust z-score, by target gene and reagent
POLR2E (RNA polymerase II, I and III subunit E): #1 4.08; #2 0.329; #3 0.285
TBC1D5 (TBC1 domain family member 5): #1 0.321; #2 0.329; #3 1.31
CES1 (carboxylesterase 1): #1 0.467; #2 -1.2; #3 0.139
MLX (MAX dimerization protein MLX): #1 -0.317; #2 -0.731; #3 -0.75
SLIT3-AS1 (SLIT3 antisense RNA 1): #1 0.773; #2 -0.04; #3 -1.07
TSEN15 (tRNA splicing endonuclease subunit 15): #1 0.635; #2 -0.444; #3 0.0442
CD34 (CD34 molecule): #1 -0.698; #2 -0.316; #3 -1.19
GIT1 (GIT ArfGAP 1): #1 -0.21; #2 0.603; #3 -0.897
LOC646012 (aurora kinase A interacting protein 1 pseudogene): #1 -1.02; #2 0.275; #3 0.35
PTGR1 (prostaglandin reductase 1): #1 1.62; #2 -0.321; #3 0.895
KLHL11 (kelch like family member 11): #1 1.1; #2 -0.227; #3 0.943
PCDHA1 (protocadherin alpha 1): #1 4.65; #2 -0.761; #3 0.0307
IFIH1 (interferon induced with helicase C domain 1): #1 0.271; #2 -0.682; #3 0.125
GLT8D1 (glycosyltransferase 8 domain containing 1): #1 -0.355; #2 1.83; #3 6.74 (active)
KAT2B (lysine acetyltransferase 2B): #1 -0.136; #2 2.75; #3 -0.455

As entered above.
Result of KLHL11 (kelch like family member 11) #1 under “G2 robust z-score”: 1.1
Entry of CD34 (CD34 molecule) #3 under “G2 robust z-score”: -1.19
For “G2 robust z-score”, KAT2B (lysine acetyltransferase 2B) #1 is entered as -0.136
Value for IFIH1 (interferon induced with helicase C domain 1) #2 in “G2 robust z-score”: -0.682
LOC646012 (aurora kinase A interacting protein 1 pseudogene) #2, G2 robust z-score: 0.275
Result for GIT1 (GIT ArfGAP 1) #3 under “G2 robust z-score”: -0.897

More records:
G2 robust z-score, by target gene and reagent
PSAPL1 (prosaposin like 1): #1 -0.623; #2 -0.0436; #3 -0.168
GLYR1 (glyoxylate reductase 1 homolog): #1 1.68; #2 0.111; #3 -0.519
CORO2B (coronin 2B): #1 -0.314; #2 -0.61; #3 0.0976
MCAM (melanoma cell adhesion molecule): #1 1.8; #2 -1.49; #3 0.189
LOC401068 (retired record): #1 -0.93; #2 -0.68; #3 0.325
CCDC138 (coiled-coil domain containing 138): #1 2.31; #2 0.0321; #3 1.32
ZNF718 (zinc finger protein 718): #1 2.19; #2 3.15; #3 0.564
C1QTNF5 (C1q and TNF related 5): #1 1.55; #2 2.03; #3 0.218
NRBF2 (nuclear receptor binding factor 2): #1 0.685; #2 -0.759; #3 0.437
ZNF217 (zinc finger protein 217): #1 -0.913; #2 -0.271; #3 -1.25
ACER1 (alkaline ceramidase 1): #1 1.62; #2 1.47; #3 -1.1
ORAI1 (ORAI calcium release-activated calcium modulator 1): #1 -0.211; #2 -1.05; #3 0.38
RPS17 (ribosomal protein S17): #1 0.39; #2 3.02; #3 2.19
RPS26P28 (ribosomal protein S26 pseudogene 28): #1 4.12; #2 -0.759; #3 1.74
